# Measurements published in paper PMC8604998.
# By UniProt entry, the sequences of proteins in these tests, tags left out.
# UniProt Q9UJY4: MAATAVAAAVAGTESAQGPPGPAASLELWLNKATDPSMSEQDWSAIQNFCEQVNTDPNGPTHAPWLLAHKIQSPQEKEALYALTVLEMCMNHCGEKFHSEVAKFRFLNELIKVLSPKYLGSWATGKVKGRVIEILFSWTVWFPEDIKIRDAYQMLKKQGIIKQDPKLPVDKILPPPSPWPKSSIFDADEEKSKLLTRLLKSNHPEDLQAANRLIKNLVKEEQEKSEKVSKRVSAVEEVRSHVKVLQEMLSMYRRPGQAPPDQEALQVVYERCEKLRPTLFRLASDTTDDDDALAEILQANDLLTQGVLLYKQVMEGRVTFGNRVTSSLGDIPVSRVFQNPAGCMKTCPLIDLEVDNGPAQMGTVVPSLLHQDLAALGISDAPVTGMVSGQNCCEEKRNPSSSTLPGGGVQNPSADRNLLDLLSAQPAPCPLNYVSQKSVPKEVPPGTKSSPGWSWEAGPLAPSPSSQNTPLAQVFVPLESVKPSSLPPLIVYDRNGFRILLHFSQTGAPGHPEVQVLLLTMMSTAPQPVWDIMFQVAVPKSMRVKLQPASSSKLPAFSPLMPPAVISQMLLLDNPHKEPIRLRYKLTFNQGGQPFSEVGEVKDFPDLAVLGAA
# No constants are given. Whether binding was seen depends on the method and setting. In cells and extracts the contact can be indirect. A yes stands for co-enrichment or nearness to the bait. Other partners may have been found.
# Target: epidermal growth factor receptor (EGFR), endogenous in ARPE-19 cells (human (endogenous in ARPE-19)) (UniProt P00533)
# Assay: affinity purification with mass spectrometry; ARPE-19 lysate (PBS, 1% Triton X-100), steady-state culture with 10% FBS; sepharose beads conjugated with anti-EGFR or control IgG, 20-24 h at 4 °C, six washes; nLC-MS/MS of the eluate
substance,measurement,value
"Golgi-localized, γ-adaptin ear-containing, ADP ribosylation factor-binding protein 2 (GGA2) (from UniProt Q9UJY4 1-613)",binding,binds
